Assay results reported in US20170312353A1.
Results are given in words; binding and its absence hold for the method and conditions named. Some results given as binding are weak or reduced against the parent protein; the word gives no strength.

Chains of the proteins cited; added tags and fusions are not shown. Residues count along the entry.
UniProt P00747, residues 20-810: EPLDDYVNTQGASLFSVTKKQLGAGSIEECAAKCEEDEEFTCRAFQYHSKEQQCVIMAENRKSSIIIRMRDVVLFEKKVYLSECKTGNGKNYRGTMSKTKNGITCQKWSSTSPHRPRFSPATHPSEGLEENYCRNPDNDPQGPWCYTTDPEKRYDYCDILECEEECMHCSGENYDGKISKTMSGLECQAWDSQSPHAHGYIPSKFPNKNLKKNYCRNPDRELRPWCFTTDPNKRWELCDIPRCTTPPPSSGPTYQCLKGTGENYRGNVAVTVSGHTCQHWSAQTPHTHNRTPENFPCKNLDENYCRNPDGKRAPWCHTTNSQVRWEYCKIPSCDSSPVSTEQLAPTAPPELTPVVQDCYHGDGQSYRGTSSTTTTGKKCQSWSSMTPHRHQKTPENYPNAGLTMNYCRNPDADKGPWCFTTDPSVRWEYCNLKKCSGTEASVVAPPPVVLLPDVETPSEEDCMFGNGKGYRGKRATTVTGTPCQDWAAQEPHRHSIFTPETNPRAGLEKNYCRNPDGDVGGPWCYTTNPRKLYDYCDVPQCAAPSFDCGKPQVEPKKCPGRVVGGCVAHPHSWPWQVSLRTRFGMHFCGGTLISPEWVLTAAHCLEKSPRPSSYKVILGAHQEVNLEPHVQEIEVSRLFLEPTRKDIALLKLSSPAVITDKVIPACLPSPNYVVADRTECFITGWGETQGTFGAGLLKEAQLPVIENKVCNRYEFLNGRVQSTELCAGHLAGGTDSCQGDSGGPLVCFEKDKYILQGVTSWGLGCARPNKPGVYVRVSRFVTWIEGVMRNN

How the values were obtained:
plasminogen [1] = biological target: plasminogen (UniProt P00747); assay: Dot-Blot, peptide on nitrocellulose, HRP anti-plasminogen antibody, DAB
plasminogen [2] = biological target: plasminogen (UniProt P00747); assay: ELISA, peptide immobilized, plasminogen in solution, HRP anti-plasminogen antibody, TMB

VAASEFYNSENKTYDLDFKTPNNDK [peptide 7] was tested, and the binding (plasminogen [1]) was “binds” and the binding (plasminogen [2]) was “binds”.

For VAASEFYNSENKTYDLDFKTPNNDKSLVKTGAQLVK [peptide 8], the binding (plasminogen [1]) was “binds” and the binding (plasminogen [2]) was “binds”.
